Test results from PubChem BioAssay AID624405 (Broad Institute, 2012).
In all, about 1,900 compounds went through this assay and about 250 (13%) were called active. Roughly 4% stayed inconclusive and do not appear here.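 Rule for the calls: active = fitted curve reaches 40% rescue activity at or below the top valid dose, in every test run; inconclusive = test runs disagree, some active and some inactive; inactive = every run misses the threshold or moves the wrong way.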 The entries are a selection whose mix differs from that of the whole data set. Results with a measured potency or affinity are listed apart.

assay: rescue of simvastatin-induced ATP loss – cell-based, C2C12 myotubes, ATP luminescence, cherry pick, dose response (AID 624405); settings: 48 h, scaled: DMSO wells 0, geranylgeraniol wells 100; at 19.5 µM (top of the series) unless noted;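 note: myotubes are challenged with simvastatin at 10 µM to lower ATP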

| Structure (SMILES) | rescue activity (ATP increase) |
| --- | --- |
| COc1ccc(CCNS(=O)(=O)c2cccs2)cc1 | inactive: 18.6% |
| CC(C(=O)O)n1c(C(F)(F)F)nc2ccccc21 (stereo not given) | inactive: 11.4% |
| CCOC(=O)c1oc2cccc(OC(C)=O)c2c1C | inactive: -16.7% |
| C[C@@H]1CN([C@@H](C)CO)C(=O)Cc2cc(NC(=O)Cc3cn(C)c4ccccc34)ccc2O[C@@H]1CN(C)S(=O)(=O)c1ccc(Cl)cc1 | inactive: 26.2% |
| CCOC(=O)C1C(c2cc(OC)c(OC)c(OC)c2)NC(=S)NC1(O)C(F)(F)F (stereo not given) | inactive: 34.4% |
| C[C@H](CO)N1C[C@H](C)[C@H](CN(C)Cc2ccc(C(F)(F)F)cc2)Oc2ccc(NC(=O)CCCCCC(=O)Nc3ccccc3N)cc2CC1=O | inactive: 4.41% |
| Cc1ccccc1N(CC(=O)NC1CCCC1)C(=O)CS(=O)CC(=O)Nc1ccc2c(c1)OCO2 (stereo not given) | inactive: 15.3% |
| Cc1ccc(N(CN2CCCC2=O)C(=O)c2ccc(C)c(C)c2)cc1 | inactive: 29.9% |
| C[C@@H]1CN([C@H](C)CO)C(=O)c2cc(NC(=O)c3ccncc3)ccc2O[C@@H](C)CCCCO[C@@H]1CN(C)Cc1ccc(C(F)(F)F)cc1 | inactive: 11.1% |
| C[C@@H]1CCCCO[C@H](CN(C)S(C)(=O)=O)[C@@H](C)CN([C@@H](C)CO)C(=O)c2cc(NS(=O)(=O)c3ccc(F)cc3)ccc2O1 | inactive: 19.6% |
| CCC1=C(c2ccc(C)cc2)S(=O)(=O)N=C1N1CCC(C(=O)NCCCN2CCCCC2C)CC1 (stereo not given) | inactive: -20.1% |
| COc1cc(Br)c(-c2sc(Nc3ccccc3)n[n+]2-c2ccc(F)cc2)cc1OC | inactive: 51.9% |
| COc1ccc2oc(=O)cc(CN3CCN(Cc4ccc(OC)c(OC)c4OC)CC3)c2c1 | inactive: -43.4% |
| Cc1cccc(Cn2c(N3CCCCC3C)nc3c2c(=O)[nH]c(=O)n3C)c1 (stereo not given) | inactive: 39.2% |
| CC(C)COc1cc(=O)[nH]c(SCC(C)C)n1 | inactive: -27.6% |
| C[C@@H]1CCCCO[C@@H](CN(C)C(=O)Nc2cccc3ccccc23)[C@H](C)CN([C@H](C)CO)C(=O)c2cc(NS(=O)(=O)c3cccs3)ccc2O1 | inactive: 3.19% |
| CC(=O)N1CCN(c2nnnn2-c2ccccc2)CC1 | inactive: -24.2% |
| COc1ccc(NC(=O)Nc2cccc3c2O[C@@H](CN(C)C(=O)Nc2cccc4ccccc24)[C@H](C)CN([C@@H](C)CO)C3=O)cc1 | inactive: -5.31% |
| S=C1N(c2ccccc2)C(c2ccccc2)N2CCCN12 (stereo not given) | inactive: 27.2% |
| C[C@H](CO)N1C[C@H](C)[C@@H](CN(C)Cc2ccccc2F)Oc2ncc(C3=CCCCC3)cc2C1=O | inactive: -21.6% |

Taken from the listing (two entries):

| Structure (SMILES) | rescue activity (ATP increase) |
| --- | --- |
| Cc1ccc(N(CN2CCCC2=O)C(=O)c2ccc(C)c(C)c2)cc1 | inactive: 29.9% |
| C[C@@H]1CN([C@H](C)CO)C(=O)c2cc(NC(=O)c3ccncc3)ccc2O[C@@H](C)CCCCO[C@@H]1CN(C)Cc1ccc(C(F)(F)F)cc1 | inactive: 11.1% |
